Data taken from publication PMC4439739.
No constants are given. Whether binding was seen depends on the method and setting. In cells and extracts the contact can be indirect. A yes stands for co-enrichment or nearness to the bait. Other partners may have been found. For some assays here: Sequences can lack the tags named with a protein.

The chains behind the UniProt entries cited, without tags or fusion partners.
UniProt Q5XKP0: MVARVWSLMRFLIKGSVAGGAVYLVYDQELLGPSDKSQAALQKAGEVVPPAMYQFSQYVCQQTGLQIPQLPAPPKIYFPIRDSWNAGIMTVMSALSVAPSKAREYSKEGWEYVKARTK

Assays:
[1] = target: T1, MIC27 C-terminally tagged with HA-FLAG (human) (UniProt Q6UXV4); assay: affinity purification with mass spectrometry; C-terminally HA-FLAG-tagged baits stably expressed in 293T cells; lysis in 1% digitonin; purified on α-FLAG beads; complexes trypsinized; CompPASS scoring (network of Figure 1B)
T1 sequence: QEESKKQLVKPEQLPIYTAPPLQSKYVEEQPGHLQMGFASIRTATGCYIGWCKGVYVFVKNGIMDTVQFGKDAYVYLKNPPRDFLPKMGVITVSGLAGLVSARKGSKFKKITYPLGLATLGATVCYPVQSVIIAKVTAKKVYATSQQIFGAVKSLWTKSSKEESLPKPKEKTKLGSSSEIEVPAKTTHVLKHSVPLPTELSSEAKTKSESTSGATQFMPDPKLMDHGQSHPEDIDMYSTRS

[2] = target: T2, MIC60 C-terminally tagged with HA-FLAG (human) (UniProt Q16891); assay: as above
T2 sequence: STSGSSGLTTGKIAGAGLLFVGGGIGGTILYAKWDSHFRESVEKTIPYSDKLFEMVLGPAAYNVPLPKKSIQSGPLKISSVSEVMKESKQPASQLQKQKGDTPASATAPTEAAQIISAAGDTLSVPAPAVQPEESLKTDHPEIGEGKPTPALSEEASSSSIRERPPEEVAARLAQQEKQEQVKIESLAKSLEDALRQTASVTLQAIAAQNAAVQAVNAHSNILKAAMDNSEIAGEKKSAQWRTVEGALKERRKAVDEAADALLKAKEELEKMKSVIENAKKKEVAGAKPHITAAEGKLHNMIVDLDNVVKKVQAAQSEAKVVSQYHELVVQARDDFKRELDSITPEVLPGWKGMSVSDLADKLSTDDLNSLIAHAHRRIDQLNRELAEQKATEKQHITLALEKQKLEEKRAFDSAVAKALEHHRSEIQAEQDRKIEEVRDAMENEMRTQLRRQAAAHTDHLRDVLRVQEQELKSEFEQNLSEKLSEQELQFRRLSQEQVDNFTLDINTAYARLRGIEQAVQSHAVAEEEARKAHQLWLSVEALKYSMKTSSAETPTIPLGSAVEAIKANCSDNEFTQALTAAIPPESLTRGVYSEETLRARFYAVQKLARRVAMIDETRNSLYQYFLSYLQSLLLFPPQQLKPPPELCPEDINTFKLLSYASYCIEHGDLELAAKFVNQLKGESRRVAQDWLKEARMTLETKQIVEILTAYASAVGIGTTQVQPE

[3] = target: T3, MIC25 C-terminally tagged with HA-FLAG (human) (UniProt Q9BRQ6); assay: as above
T3 sequence: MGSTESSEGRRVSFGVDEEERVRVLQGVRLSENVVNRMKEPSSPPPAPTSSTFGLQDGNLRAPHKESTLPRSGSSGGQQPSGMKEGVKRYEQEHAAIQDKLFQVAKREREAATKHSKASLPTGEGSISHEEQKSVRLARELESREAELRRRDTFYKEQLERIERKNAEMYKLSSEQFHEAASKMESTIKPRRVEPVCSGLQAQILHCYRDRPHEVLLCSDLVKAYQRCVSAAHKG

[4] = target: T4, MIC19 C-terminally tagged with HA-FLAG (human) (UniProt Q9NX63); assay: as above
T4 sequence: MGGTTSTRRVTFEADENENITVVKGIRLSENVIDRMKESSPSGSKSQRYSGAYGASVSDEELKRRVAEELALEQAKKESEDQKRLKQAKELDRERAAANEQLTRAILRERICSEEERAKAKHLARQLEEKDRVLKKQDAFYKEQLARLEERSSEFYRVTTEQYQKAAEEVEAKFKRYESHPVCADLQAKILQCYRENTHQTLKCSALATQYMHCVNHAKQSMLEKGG

[5] = target: C-terminally tagged QIL1 (QIL1-HA-FLAG) (human) (UniProt Q5XKP0); assay: affinity purification with mass spectrometry; C-terminally tagged QIL1 as bait (Figure 1C); cell line not stated for this bait in the text (293T and/or HCT116 by the supplement's legend)

Measured: binding

B1: SAMM50, endogenous (protein, UniProt Q9Y512 1-469)
chain: MGTVHARSLEPLPSSGPDFGGLGEEAEFVEVEPEAKQEILENKDVVVQHVHFDGLGRTKDDIIICEIGDVFKAKNLIEVMRKSHEAREKLLRLGIFRQVDVLIDTCQGDDALPNGLDVTFEVTELRRLTGSYNTMVGNNEGSMVLGLKLPNLLGRAEKVTFQFSYGTKETSYGLSFFKPRPGNFERNFSVNLYKVTGQFPWSSLRETDRGMSAEYSFPIWKTSHTVKWEGVWRELGCLSRTASFAVRKESGHSLKSSLSHAMVIDSRNSSILPRRGALLKVNQELAGYTGGDVSFIKEDFELQLNKQLIFDSVFSASFWGGMLVPIGDKPSSIADRFYLGGPTSIRGFSMHSIGPQSEGDYLGGEAYWAGGLHLYTPLPFRPGQGGFGELFRTHFFLNAGNLCNLNYGEGPKAHIRKLAECIRWSYGAGIVLRLGNIARLELNYCVPMGVQTGDRICDGVQFGAGIRFL
binds: [1] | [2] | [3] | [4] | [5]

B2: MTX1, endogenous (protein, UniProt Q13505 1-466)
chain: MLLGGPPRSPRSGTSPKGPWSSTGHVQFGKSPQTWPRRTRPRSPEPAAPSGVRGSTWTRRRDSPRRAGPTALSRYVGHLWMGRRPPSPEARGPVPRSSAASRARRSLASPGISPGPLTATIGGAVAGGGPRQGRAEAHKEVFPGQRVGKMAAPMELFCWSGGWGLPSVDLDSLAVLTYARFTGAPLKVHKISNPWQSPSGTLPALRTSHGEVISVPHKIITHLRKEKYNADYDLSARQGADTLAFMSLLEEKLLPVLVHTFWIDTKNYVEVTRKWYAEAMPFPLNFFLPGRMQRQYMERLQLLTGEHRPEDEEELEKELYREARECLTLLSQRLGSQKFFFGDAPASLDAFVFSYLALLLQAKLPSGKLQVHLRGLHNLCAYCTHILSLYFPWDGAEVPPQRQTPAGPETEEEPYRRRNQILSVLAGLAAMVGYALLSGIVSIQRATPARAPGTRTLGMAEEDEEE
binds: [1] | [2] | [3] | [4] | [5]

B3: DNAJC11, endogenous (protein, UniProt Q9NVH1 1-559)
chain: MATALSEEELDNEDYYSLLNVRREASSEELKAAYRRLCMLYHPDKHRDPELKSQAERLFNLVHQAYEVLSDPQTRAIYDIYGKRGLEMEGWEVVERRRTPAEIREEFERLQREREERRLQQRTNPKGTISVGVDATDLFDRYDEEYEDVSGSSFPQIEINKMHISQSIEAPLTATDTAILSGSLSTQNGNGGGSINFALRRVTSAKGWGELEFGAGDLQGPLFGLKLFRNLTPRCFVTTNCALQFSSRGIRPGLTTVLARNLDKNTVGYLQWRWGIQSAMNTSIVRDTKTSHFTVALQLGIPHSFALISYQHKFQDDDQTRVKGSLKAGFFGTVVEYGAERKISRHSVLGAAVSVGVPQGVSLKVKLNRASQTYFFPIHLTDQLLPSAMFYATVGPLVVYFAMHRLIIKPYLRAQKEKELEKQRESAATDVLQKKQEAESAVRLMQESVRRIIEAEESRMGLIIVNAWYGKFVNDKSRKSEKVKVIDVTVPLQCLVKDSKLILTEASKAGLPGFYDPCVGEEKNLKVLYQFRGVLHQVMVLDSEALRIPKQSHRIDTDG
binds: [5]
